Patent US4394383A, “N-Alkoxysulfenylcarbamates useful as insecticides” (priority 1981, dated 1983)
At least one structure is not confirmed: it was looked up by name or label, or the drawing left a doubt.

System: house flies, Musca domestica
Assay: Insecticidal activity against house flies, topical application on the notum, 24 h mortality
Assay type: in vivo
Settings: house flies / insects; comparison with parent carbamate or purified compound
Description: Representative compounds of the N-alkoxysulfenylcarbamate esters of the invention were tested for insecticidal activity against house flies, Musca domestica. Stock 1% concentrated solutions of each of the test compounds were made in acetone, and such solutions diluted with acetone to a concentration of 0.001-0.1%. House flies were treated topically on the notum by 1 μl of each of the diluted acetone solutions and percent mortality was counted 24 hours after application. Insects were held at constant temperature of 60° F.
The term "LD50 " represents the dose needed to kill 50% of the test animals. In interpreting the values in the table above, the lower the value for LD50 for house flies, the greater the insecticidal potency or toxicity of that particular compound. On the other hand, the higher the value of LD50 for mice, the lower the mammalian toxicity or the greater is the mammalian safety of such compound.

SMILES: CC(C)Oc1ccccc1OC(=O)N(C)SOCc1ccccc1 [Example 9, 2-isopropoxyphenyl(benzyloxysulfenyl)(methyl)carbamate]
- insecticidal toxicity / activity (in words): of comparable toxicity to house flies as the parent carbamate propoxur
